Four compounds from PubChem BioAssay AID200 (DTP/NCI, 2004) can be followed below.

The list is a part of this screen's results and no random one: it gathers tests that were run many times, whatever their T/C, doses with no T/C, and many T/C values between a quarter and a half above the control. Further doses and runs are listed elsewhere. T/C is the treated group as % of the vehicle group. Some doses have a count of surviving animals in place of a T/C: the source holds a T/C of zero for them, seemingly a mark for toxic or unscored doses. Some survivor counts are full or nearly so, which does not show that the dose was tolerated: the source hardly ever lists a survival T/C far under the control, and the zero likely stands for such cases as well. Survivors were counted at the toxicity check, usually on the fifth day, unless a day is given; later deaths do not show. Schedules are NCI's codes, read here as Q, the interval in days (D) or hours (H), X, the number of doses. For survival time, the PubChem record calls one and a half times the control and up active, and a quarter to a half above the control has no call in these data; cut-offs in other NCI protocols can differ. Some T/C values carry the count of animals alive at the toxicity check (mostly the fifth day); without a count, all were alive then.

The test system of the assay is B6C3F1 mice, B16 melanoma ip, median survival T/C. Briefly: NCI In Vivo Anticancer Drug Screen. Data for tumor model B16 Melanoma (intraperitoneal) in B6C3F1 mice. To be noted: T/C endpoint: median survival time, schedule: Q01DX009 (ip), higher T/C = longer survival. The gist of the method: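 Values are T/C ratios: the measurement in treated animals divided by that in vehicle-treated controls, using survival or tumor size in mice carrying transplantable tumors.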

[1] abbreviates: dose: 3.0 mg/kg/injection, vehicle: Klucel (hydroxypropylcellulose) (HPC).
[2] abbreviates: dose: 200.0 mg/kg/injection, vehicle: saline.

`COC1/C=C\C=C(/C)C(=O)NC2=CC(=O)C=C(C2=O)C(OC)C(C)CC(OC)C(OC)C(C)/C=C(/C)C1OC(N)=O` (configuration not stated): the T/C (dose: 0.75 mg/kg/injection, vehicle: Klucel (hydroxypropylcellulose) (HPC)) is 142 % of control; the T/C (dose: 1.5 mg/kg/injection, vehicle: Klucel (hydroxypropylcellulose) (HPC)) is 132 % of control [9 of 10 alive]; the T/C under setting [1] is 147 % of control [9 of 10 alive]. For the same compound, the survivor count is reported as 8 of 10 under setting [1]; 2 of 10 (dose: 6.0 mg/kg/injection, vehicle: Klucel (hydroxypropylcellulose) (HPC)); 0 of 10 (dose: 12.0 mg/kg/injection, vehicle: Klucel (hydroxypropylcellulose) (HPC)); 0 of 10 (dose: 24.0 mg/kg/injection, vehicle: Klucel (hydroxypropylcellulose) (HPC)).

On to `ClC1=C(Cl)C2(Cl)C3C(Cl)C(Cl)CC3C1(Cl)C2(Cl)Cl` (configuration not stated), for which the survivor count is, setting by setting: (dose: 200.0 mg/kg/injection, vehicle: other) 8 of 10; (dose: 400.0 mg/kg/injection, vehicle: other) 0 of 10.

Regarding `CCN(CC)CCOCCO`, the survivor count runs as follows: under setting [2], 7 of 10; (dose: 400.0 mg/kg/injection, vehicle: saline) 0 of 10.

Regarding `CC(C)C(NC(=O)C(F)(F)F)C(=O)O` (configuration not stated), under setting [2], the survivor count is 9 of 10.
